Values of other authors in patent US20150202321A1, “COMPOSITIONS COMPRISING CHITOSAN-DRUG CONJUGATES AND METHODS OF MAKING AND USING THE SAME” (NEWGEN BIOPHARMA CORP., priority 2012, published 2015).
At least one read-out could not be matched to a standard name with certainty.

Settings: administration with food

## CC(C)c1nc(N(C)S(C)(=O)=O)nc(-c2ccc(F)cc2)c1/C=C/[C@@H](O)C[C@@H](O)CC(=O)O [rosuvastatin]
  effect of food on AUC: did not affect
